Assay results reported in PMC8615847.
Results are given in words; binding and its absence hold for the method and conditions named. In cells and extracts the contact can be indirect. Some results given as binding are weak or reduced against the parent protein; the word gives no strength.

Chains of the proteins cited; added tags and fusions are not shown.
UniProt O55242: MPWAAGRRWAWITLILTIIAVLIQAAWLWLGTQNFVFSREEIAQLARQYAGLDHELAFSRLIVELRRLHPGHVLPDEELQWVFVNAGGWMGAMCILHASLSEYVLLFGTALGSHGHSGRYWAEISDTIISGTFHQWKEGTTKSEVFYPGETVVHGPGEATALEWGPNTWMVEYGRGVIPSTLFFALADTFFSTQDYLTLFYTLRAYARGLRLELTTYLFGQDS

Legend:
[1] = biological target: glutamate NMDA receptor NR1 subunit (mouse (endogenous in PAG and spinal cord)) (UniProt P35438); test: co-IP; as a1, NR1 precipitated from the PAG of sham-operated 129 WT mice, blot for σ1R
[2] = biological target: glutamate NMDA receptor NR1 subunit (mouse (endogenous in PAG and spinal cord)) (UniProt P35438); test: co-IP; mouse PAG synaptosomal membranes (P2) solubilised in 1% Nonidet P-40, 50 mM Tris-HCl pH 7.5, 50 mM NaCl; biotinylated IgGs against NR1, NR2A or NR2B overnight at 4 °C, streptavidin agarose; reducing SDS-PAGE and Western blot; CD1 and 129 mice, wild type, σ1R^−/− or HINT1^−/−, naive, sham or CCI, with or without S1RA and other drugs icv

binding [1]: binds weakly | binding [2]: binds
Substance: sigma 1 receptor (endogenous) (from UniProt O55242 1-223)
